Results as given in article doi:10.1101/2024.12.01.626218.

Target: T1, His-SUMO-TTF2-Δ1-100 (contains ATPase domain) del1-100 (Mus musculus) (UniProt Q5NC05)
T1 sequence (looked up): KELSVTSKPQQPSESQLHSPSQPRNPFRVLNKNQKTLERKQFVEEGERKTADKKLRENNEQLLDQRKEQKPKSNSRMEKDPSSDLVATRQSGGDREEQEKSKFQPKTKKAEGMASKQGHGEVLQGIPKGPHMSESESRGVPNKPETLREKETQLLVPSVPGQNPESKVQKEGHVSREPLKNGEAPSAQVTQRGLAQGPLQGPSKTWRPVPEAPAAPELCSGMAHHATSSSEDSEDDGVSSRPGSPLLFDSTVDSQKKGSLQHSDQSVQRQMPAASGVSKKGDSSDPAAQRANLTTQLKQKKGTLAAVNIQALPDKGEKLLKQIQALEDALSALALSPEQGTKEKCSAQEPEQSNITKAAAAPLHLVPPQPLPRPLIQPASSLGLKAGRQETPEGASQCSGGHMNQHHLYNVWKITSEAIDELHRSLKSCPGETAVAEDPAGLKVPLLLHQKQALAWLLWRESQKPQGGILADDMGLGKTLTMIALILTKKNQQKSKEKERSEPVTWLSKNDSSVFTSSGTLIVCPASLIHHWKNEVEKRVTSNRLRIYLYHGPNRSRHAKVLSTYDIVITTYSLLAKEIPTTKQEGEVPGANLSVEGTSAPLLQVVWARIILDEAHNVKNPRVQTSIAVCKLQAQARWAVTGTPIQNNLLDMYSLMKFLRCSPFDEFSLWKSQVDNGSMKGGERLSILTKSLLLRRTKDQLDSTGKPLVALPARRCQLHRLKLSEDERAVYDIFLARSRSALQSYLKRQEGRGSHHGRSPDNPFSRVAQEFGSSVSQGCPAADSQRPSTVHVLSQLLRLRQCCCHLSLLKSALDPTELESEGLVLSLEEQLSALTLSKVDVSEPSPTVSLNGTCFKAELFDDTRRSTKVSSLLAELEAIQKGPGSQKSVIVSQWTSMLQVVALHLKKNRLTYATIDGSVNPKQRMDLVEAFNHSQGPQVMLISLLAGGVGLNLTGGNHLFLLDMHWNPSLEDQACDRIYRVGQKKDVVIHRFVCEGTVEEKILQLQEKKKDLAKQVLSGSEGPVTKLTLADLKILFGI
Test: EMSA
Conditions: 10 nM DNA; residues 101-1138

CAGTGCCAAGCTTGCATGCCTGCAGGTCGACTCTAGAGGATCCCCGGGTACCGAGCTCGAATTCGTAATCATGGTCATAG (double strand) [YX011/YX012 80-bp dsDNA]
binding result: binds

CAGTGCCAAGCTTGCATGCCTGCAGGTCGACTCTAGAGGATCCCCGGGTACCGAGCTCGAATTCGTAATCATGGTCATAG [YX011 80-nt ssDNA]
binding result: binds

Construct, isoform or probe ends are uncertain for at least one entry. At least one verdict was read from the data and is not stated in words by the source. Protein sequences can lack the tags named with them.
